Amino acid sequences for entries named in this document (tags omitted). A change or cut given only in a name is not applied to a line headed by its entry.
UniProt O75140: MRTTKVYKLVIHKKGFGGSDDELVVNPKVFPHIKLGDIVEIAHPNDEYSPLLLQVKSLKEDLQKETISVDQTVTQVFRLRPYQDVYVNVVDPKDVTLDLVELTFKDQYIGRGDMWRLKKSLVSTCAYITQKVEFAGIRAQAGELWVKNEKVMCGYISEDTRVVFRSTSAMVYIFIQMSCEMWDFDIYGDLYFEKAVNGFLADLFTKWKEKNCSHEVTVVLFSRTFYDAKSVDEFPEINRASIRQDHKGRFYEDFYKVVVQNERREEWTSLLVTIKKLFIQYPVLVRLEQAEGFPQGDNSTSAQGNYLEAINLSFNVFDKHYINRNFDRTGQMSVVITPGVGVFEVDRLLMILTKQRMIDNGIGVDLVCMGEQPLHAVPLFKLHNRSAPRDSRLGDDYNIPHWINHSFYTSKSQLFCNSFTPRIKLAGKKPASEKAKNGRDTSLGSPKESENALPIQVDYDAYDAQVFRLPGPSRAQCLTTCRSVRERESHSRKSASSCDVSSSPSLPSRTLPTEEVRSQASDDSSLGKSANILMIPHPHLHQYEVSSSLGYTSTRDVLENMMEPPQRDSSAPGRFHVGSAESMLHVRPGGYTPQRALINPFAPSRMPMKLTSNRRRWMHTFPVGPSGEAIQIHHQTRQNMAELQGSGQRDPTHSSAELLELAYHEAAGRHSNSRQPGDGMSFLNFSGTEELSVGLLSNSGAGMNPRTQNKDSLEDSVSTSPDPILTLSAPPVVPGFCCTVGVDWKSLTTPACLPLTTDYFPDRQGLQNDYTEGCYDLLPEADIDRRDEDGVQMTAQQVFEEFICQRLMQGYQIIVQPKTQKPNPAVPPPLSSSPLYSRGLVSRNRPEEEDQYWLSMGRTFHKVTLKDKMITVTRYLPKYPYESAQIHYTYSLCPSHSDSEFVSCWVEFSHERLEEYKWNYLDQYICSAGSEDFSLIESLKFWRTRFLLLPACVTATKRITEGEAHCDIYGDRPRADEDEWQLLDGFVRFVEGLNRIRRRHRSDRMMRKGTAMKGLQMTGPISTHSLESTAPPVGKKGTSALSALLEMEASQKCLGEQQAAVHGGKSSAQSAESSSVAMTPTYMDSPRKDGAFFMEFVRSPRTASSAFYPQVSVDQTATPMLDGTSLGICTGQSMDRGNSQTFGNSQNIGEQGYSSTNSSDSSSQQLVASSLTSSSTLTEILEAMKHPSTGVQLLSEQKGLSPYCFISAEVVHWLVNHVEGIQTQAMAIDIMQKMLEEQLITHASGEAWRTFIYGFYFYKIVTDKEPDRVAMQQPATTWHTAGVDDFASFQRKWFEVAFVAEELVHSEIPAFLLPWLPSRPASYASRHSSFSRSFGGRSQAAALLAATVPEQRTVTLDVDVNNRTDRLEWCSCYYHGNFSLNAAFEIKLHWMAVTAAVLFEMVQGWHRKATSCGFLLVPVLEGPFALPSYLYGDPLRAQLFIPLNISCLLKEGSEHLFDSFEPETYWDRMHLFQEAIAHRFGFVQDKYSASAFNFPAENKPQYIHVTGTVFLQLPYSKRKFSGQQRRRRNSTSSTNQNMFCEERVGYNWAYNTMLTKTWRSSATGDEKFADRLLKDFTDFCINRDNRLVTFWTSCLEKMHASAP

In PMC10316081:

Key:
[1] = target: Flag-Depdc5(R1407A) (human) (UniProt O75140); assay: SEC; Flag-Depdc5, HA-Nprl2 and HA-Nprl3 co-expressed in 293-FreeStyle cells; Flag-M2 affinity gel, washed with 300 mM NaCl, eluted with 3x Flag peptide, then HiLoad 16/60 Superdex 200 gel filtration; fractions on a Coomassie-stained gel
[2] = target: Flag-Depdc5(R1407D) (human) (UniProt O75140); assay: as above

| binding [1] | binding [2] | Binder |
| --- | --- | --- |
| binds | – | HA-Nprl2 (protein, UniProt Q8WTW4 1-380) MGSGCRIECIFFSEFHPTLGPKITYQVPEDFISRELFDTVQVYIITKPELQNKLITVTAMEKKLIGCPVCIEHKKYSRNALLFNLGFVCDAQAKTCALEPIVKKLAGYLTTLELESSFVSMEESKQKLVPIMTILLEELNASGRCTLPIDESNTIHLKVIEQRPDPPVAQEYDVPVFTKDKEDFFNSQWDLTTQQILPYIDGFRHIQKISAEADVELNLVRIAIQNLLYYGVVTLVSILQYSNVYCPTPKVQDLVDDKSLQEACLSYVTKQGHKRASLRDVFQLYCSLSPGTTVRDLIGRHPQQLQHVDERKLIQFGLMKNLIRRLQKYPVRVTREEQSHPARLYTGCHSYDEICCKTGMSYHELDERLENDPNIIICWK |
| binds | binds | HA-Nprl3 (protein, UniProt Q12980 1-569) MRDNTSPISVILVSSGSRGNKLLFRYPFQRSQEHPASQTSKPRSRYAASNTGDHADEQDGDSRFSDVILATILATKSEMCGQKFELKIDNVRFVGHPTLLQHALGQISKTDPSPKREAPTMILFNVVFALRANADPSVINCLHNLSRRIATVLQHEERRCQYLTREAKLILALQDEVSAMADGNEGPQSPFHHILPKCKLARDLKEAYDSLCTSGVVRLHINSWLEVSFCLPHKIHYAASSLIPPEAIERSLKAIRPYHALLLLSDEKSLLGELPIDCSPALVRVIKTTSAVKNLQQLAQDADLALLQVFQLAAHLVYWGKAIIIYPLCENNVYMLSPNASVCLYSPLAEQFSHQFPSHDLPSVLAKFSLPVSLSEFRNPLAPAVQETQLIQMVVWMLQRRLLIQLHTYVCLMASPSEEEPRPREDDVPFTARVGGRSLSTPNALSFGSPTSSDDMTLTSPSMDNSSAELLPSGDSPLNQRMTENLLASLSEHERAAILSVPAAQNPEDLRMFARLLHYFRGRHHLEEIMYNENTRRSQLLMLFDKFRSVLVVTTHEDPVIAVFQALLP |

These are yes or no findings as the source states them, for the method shown. Binding can be weak; no strength is given. Tags and fused reporters may be left off the sequences shown.
